From ChEMBL document CHEMBL3351785, “Discovery of nanomolar phosphoinositide 3-kinase gamma (PI3Kγ) inhibitors using ligand-based modeling and virtual screening followed by in vitro analysis” (Eur J Med Chem, 2014)

Protein sequences, listed by entry. Tags and fused reporters are not part of them. Lines headed by an entry give the natural chain unless they say otherwise; changes in a name come on top.
UniProt P48736: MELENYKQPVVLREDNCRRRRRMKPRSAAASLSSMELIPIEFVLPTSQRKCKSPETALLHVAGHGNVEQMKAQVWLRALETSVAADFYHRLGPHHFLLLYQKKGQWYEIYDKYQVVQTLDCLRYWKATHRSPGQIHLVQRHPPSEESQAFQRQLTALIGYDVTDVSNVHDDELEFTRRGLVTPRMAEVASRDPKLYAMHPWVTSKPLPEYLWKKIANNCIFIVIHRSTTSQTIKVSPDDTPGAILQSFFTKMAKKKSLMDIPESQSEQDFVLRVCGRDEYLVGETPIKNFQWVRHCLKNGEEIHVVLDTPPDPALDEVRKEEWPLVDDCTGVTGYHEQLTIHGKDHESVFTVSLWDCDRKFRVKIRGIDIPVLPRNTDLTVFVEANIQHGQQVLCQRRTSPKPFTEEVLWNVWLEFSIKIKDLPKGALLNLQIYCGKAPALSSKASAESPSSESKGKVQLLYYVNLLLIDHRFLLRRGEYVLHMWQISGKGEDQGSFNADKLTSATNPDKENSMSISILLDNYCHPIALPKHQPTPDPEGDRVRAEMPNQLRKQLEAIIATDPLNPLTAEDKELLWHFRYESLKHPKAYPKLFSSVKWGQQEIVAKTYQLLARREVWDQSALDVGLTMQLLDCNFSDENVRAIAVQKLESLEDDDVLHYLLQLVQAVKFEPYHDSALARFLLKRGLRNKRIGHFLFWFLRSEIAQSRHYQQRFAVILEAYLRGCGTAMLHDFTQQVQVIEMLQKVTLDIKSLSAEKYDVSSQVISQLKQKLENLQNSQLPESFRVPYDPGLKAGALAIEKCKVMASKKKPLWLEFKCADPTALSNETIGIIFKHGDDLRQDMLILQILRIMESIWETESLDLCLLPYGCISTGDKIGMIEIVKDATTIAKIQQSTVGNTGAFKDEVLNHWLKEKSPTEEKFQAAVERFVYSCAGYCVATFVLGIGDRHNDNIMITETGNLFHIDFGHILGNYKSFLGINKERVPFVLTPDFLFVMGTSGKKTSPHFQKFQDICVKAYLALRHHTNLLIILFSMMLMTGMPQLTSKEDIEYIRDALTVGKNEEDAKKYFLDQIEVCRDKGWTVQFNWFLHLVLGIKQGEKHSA

Biological target: Phosphatidylinositol 4,5-bisphosphate 3-kinase catalytic subunit gamma isoform (Homo sapiens, UniProt P48736)
Test: Inhibition of PI3Kgamma (unknown origin) assessed as decrease in fluorescence intensity using phosphorylated substrate

Row | Compound | IC50 [mM]
1 | Cn1c(=O)c2c(ncn2C)n(C)c1=O [CAFFEINE] | 3.63
2 | Cn1c(=O)c2[nH]cnc2n(C)c1=O [THEOPHYLLINE] | 2.9
